Test results published in paper PMC5744130.
These are yes or no findings as the source states them, for the method shown. In cells and extracts the contact can be indirect.

Amino acid sequences for entries named in this document (tags omitted).
UniProt Q8TEW0: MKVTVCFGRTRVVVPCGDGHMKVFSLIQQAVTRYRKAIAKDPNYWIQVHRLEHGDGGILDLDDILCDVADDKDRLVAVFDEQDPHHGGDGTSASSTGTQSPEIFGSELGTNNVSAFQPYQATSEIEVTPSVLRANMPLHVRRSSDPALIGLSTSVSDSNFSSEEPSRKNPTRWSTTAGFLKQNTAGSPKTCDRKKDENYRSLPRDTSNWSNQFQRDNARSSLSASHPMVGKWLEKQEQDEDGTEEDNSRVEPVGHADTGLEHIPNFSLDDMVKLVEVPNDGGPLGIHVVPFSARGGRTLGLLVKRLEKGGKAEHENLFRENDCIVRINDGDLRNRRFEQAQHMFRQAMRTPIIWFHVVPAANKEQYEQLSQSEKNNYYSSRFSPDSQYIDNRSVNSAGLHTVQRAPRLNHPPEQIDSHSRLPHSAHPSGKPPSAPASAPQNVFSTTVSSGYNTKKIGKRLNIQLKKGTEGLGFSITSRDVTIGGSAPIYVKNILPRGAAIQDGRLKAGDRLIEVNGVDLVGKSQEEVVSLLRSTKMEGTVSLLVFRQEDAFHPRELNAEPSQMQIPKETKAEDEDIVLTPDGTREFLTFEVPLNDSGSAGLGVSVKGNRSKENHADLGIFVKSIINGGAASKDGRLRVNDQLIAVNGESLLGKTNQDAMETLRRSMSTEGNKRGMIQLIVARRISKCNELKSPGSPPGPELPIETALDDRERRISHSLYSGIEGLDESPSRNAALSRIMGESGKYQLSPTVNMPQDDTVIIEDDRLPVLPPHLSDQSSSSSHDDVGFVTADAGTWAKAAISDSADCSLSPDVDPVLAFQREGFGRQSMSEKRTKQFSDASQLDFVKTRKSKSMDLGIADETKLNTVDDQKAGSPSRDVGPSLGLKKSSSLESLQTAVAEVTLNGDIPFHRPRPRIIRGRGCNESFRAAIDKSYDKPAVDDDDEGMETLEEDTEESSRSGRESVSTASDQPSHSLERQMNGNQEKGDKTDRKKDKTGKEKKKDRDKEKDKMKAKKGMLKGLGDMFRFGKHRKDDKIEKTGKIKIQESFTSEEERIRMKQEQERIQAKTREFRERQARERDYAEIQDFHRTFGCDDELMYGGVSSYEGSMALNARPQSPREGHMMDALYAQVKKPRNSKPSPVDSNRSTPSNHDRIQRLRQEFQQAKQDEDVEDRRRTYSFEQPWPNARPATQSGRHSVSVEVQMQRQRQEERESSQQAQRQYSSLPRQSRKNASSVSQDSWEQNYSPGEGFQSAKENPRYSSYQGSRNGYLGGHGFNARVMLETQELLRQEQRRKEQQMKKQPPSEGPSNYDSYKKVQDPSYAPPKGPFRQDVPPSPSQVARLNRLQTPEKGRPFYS

Tests used:
[1] = biological target: HTLV-1 Tax protein (construct of the pull-down and co-immunoprecipitation not stated) (HTLV-1) (UniProt P03409); test: pull-down; GST pull-down, data not shown; which protein carried GST not stated
[2] = biological target: HTLV-1 Tax protein (construct of the pull-down and co-immunoprecipitation not stated) (HTLV-1) (UniProt P03409); test: co-IP; co-immunoprecipitation in HEK293 cells, data not shown

Partitioning defective 3 (PAR3) (construct of the pull-down and co-immunoprecipitation not stated) (from UniProt Q8TEW0 1-1356)
binding [1]: no binding
binding [2]: no binding
